Laboratory results: paper PMC7199855, “GRAF2, WDR44, and MICAL1 mediate Rab8/10/11–dependent export of E-cadherin, MMP14, and CFTR ΔF508” (The Journal of Cell Biology, 2020)
Positions count from the first letter of the chain named. Results are given in words; binding and its absence hold for the method and conditions named. Binding seen in cells or lysates may run through a third protein. Some results given as binding are weak or reduced against the parent protein; the word gives no strength. Tags and fused reporters may be left off the sequences shown.

Chains of the proteins cited; added tags and fusions are not shown.
UniProt P61007: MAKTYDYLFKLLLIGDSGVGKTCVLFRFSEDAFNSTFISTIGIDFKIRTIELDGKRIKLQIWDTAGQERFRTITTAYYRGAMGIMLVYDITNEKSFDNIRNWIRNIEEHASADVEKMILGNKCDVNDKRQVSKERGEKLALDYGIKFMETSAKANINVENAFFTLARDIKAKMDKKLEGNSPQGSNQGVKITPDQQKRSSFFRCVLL
UniProt O95292: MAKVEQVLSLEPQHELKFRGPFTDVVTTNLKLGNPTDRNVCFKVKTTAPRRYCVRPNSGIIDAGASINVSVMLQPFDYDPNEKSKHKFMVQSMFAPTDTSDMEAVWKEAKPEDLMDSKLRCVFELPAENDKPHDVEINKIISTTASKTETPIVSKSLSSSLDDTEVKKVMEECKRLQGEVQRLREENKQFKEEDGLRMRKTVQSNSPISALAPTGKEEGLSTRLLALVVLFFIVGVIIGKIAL

Assays:
myc-MICAL1^Pro (human) = target: T1, myc-MICAL1^Pro (human) (UniProt Q8TDZ2); assay: co-IP; transfected 293T, IP with α-myc–coated magnetic beads; 20 mM Hepes pH 7.4, 150 mM NaCl, 2 mM EDTA, 1% IGEPAL CA-630; Western blot
T1 sequence: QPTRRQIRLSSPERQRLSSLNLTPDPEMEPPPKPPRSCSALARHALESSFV

myc-MICAL1^tail (human) = target: T2, myc-MICAL1^tail (human) (UniProt Q8TDZ2); assay: as above
T2 sequence: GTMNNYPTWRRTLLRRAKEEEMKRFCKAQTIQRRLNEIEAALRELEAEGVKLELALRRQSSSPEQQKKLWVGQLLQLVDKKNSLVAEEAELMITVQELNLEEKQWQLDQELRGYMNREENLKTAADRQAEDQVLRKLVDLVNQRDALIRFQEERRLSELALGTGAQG

myc-MICAL1 (human) = target: T3, myc-MICAL1 (human) (UniProt Q8TDZ2); assay: co-IP; transfected 293T, IP with α-myc antibody and Protein G Sepharose; 20 mM Hepes pH 7.4, 150 mM NaCl, 2 mM EDTA, 1% IGEPAL CA-630; Western blot
T3 sequence: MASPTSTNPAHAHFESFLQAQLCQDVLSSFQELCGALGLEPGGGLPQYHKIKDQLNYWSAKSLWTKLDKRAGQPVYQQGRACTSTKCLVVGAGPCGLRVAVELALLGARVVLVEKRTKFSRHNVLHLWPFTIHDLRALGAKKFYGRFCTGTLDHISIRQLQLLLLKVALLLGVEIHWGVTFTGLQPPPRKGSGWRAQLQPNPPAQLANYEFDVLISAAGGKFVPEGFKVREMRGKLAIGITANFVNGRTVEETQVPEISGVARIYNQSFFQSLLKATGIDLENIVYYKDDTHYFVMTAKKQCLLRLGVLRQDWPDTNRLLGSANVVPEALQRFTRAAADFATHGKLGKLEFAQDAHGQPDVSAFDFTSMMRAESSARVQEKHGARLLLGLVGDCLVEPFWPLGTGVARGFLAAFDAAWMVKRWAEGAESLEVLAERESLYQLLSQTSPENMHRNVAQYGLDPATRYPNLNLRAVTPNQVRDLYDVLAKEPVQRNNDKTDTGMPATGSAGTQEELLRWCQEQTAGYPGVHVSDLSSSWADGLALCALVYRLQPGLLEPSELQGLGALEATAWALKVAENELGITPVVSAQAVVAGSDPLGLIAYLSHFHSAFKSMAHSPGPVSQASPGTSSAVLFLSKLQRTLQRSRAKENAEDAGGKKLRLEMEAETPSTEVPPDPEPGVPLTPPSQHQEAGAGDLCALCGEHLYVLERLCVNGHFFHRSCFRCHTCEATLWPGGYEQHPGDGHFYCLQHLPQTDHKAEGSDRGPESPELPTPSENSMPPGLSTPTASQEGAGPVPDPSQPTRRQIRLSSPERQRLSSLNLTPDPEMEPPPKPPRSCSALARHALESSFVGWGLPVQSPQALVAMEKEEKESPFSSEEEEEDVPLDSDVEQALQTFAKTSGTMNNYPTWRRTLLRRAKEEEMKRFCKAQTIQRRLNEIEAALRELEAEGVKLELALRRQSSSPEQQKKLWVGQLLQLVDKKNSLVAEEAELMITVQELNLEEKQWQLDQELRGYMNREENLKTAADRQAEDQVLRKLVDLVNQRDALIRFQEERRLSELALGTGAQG

myc–MICAL1 G3W (human) = target: T4, myc–MICAL1 G3W (human) (UniProt Q8TDZ2); assay: as above
T4 sequence: T3 sequence with G91W, G93W, G96W

GFP-WDR44 (human) = target: T5, GFP-WDR44 (human) (UniProt Q5JSH3); assay: co-IP; transfected 293T, IP with α-GFP and Protein G Sepharose; 20 mM Hepes pH 7.4, 150 mM NaCl, 2 mM EDTA, 1% IGEPAL CA-630; Western blot
T5 sequence: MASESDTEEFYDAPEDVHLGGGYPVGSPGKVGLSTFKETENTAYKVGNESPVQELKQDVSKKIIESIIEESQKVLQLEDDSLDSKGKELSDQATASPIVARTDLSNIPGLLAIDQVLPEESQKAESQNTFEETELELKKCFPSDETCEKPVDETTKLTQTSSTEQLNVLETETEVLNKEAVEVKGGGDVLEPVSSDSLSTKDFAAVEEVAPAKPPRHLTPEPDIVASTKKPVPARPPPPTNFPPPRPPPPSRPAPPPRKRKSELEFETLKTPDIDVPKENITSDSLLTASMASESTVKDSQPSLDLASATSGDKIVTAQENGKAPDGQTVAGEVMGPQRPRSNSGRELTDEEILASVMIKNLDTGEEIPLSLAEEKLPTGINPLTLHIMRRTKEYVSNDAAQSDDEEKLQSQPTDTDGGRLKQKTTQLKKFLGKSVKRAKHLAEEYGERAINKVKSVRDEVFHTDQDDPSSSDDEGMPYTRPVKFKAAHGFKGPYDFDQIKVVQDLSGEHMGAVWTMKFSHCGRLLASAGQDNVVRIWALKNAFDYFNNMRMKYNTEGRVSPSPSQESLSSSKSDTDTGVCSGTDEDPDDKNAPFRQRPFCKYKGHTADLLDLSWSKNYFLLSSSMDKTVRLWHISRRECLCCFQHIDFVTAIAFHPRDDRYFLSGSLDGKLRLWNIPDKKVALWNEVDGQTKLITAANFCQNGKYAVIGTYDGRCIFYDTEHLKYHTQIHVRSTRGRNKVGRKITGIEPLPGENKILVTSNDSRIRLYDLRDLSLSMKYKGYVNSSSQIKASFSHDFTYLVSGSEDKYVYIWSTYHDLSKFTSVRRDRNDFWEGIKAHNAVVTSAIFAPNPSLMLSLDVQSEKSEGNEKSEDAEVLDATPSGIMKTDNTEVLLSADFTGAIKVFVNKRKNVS

GFP-WDR44 ΔFFAT (human) = target: T6, GFP-WDR44 ΔFFAT (human) (UniProt Q5JSH3); assay: as above
T6 sequence: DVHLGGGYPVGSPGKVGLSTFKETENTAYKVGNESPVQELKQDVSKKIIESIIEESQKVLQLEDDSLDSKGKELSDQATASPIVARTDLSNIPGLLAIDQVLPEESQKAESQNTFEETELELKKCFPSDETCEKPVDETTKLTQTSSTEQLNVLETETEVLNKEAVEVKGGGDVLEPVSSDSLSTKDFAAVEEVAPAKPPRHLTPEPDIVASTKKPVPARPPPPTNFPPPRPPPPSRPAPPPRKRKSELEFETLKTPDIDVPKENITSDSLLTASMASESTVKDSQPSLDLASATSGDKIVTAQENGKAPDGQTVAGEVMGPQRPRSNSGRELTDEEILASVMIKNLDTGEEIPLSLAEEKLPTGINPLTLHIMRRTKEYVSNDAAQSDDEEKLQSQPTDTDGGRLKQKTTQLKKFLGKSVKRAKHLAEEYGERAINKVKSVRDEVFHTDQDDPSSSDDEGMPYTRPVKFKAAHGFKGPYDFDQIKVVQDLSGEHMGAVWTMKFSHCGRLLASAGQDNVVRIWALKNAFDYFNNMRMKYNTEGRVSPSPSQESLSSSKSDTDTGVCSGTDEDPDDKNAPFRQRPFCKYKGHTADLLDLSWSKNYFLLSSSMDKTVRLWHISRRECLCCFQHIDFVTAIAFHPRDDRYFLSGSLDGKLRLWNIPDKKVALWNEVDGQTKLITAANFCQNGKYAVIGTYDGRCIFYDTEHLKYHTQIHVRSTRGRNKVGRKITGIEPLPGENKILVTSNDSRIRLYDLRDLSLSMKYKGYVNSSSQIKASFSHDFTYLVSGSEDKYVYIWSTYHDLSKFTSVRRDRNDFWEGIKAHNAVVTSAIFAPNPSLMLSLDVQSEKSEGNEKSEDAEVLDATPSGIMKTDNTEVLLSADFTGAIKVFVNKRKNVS

Substance	binding (myc-MICAL1^Pro (human))	binding (myc-MICAL1^tail (human))	binding (myc-MICAL1 (human))	binding (myc–MICAL1 G3W (human))	binding (GFP-WDR44 (human))	binding (GFP-WDR44 ΔFFAT (human))
GFP-Rab8a (from UniProt P61007 1-207)	no binding	binds	binds	binds		
myc-VAPB (from UniProt O95292 1-243)					binds	no binding
